Drug screen on melanoma cell lines: cell count

From a melanoma drug combination screen (doi:10.1371/journal.pone.0140310); values rounded.

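Human melanoma cell lines in 1,536-well plates were treated with a pair of drugs for 72 h, then fixed, stained and imaged. Values are the number of DAPI-stained nuclei as a percentage of the DMSO control: 100 is no effect, lower means fewer cells. Concentrations were fixed for each drug; these are the lower of two levels, a fifth of the higher. The file gives one value for each pair and line, without errors, so small differences may be noise.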
An unselected part of the screen is shown.
A dash means that no value is listed here.

Drugs:
ENMD-2076 (40 nM): Cc1cc(Nc2cc(N3CCN(C)CC3)nc(/C=C/c3ccccc3)n2)n[nH]1
AZD7762 (20 nM): NC(=O)Nc1cc(-c2cccc(F)c2)sc1C(=O)N[C@H]1CCCNC1
midostaurin (80 nM): CO[C@@H]1[C@H](N(C)C(=O)c2ccccc2)C[C@H]2O[C@]1(C)n1c3ccccc3c3c4c(c5c6ccccc6n2c5c31)C(=O)NC4
embelin (1200 nM): CCCCCCCCCCCC1=C(O)C(=O)C=C(O)C1=O
A-769662 (2000 nM): N#Cc1c(O)c2c(-c3ccc(-c4ccccc4O)cc3)csc2[nH]c1=O
nutlin-3 (100 nM): COc1ccc(C2=N[C@@H](c3ccc(Cl)cc3)[C@@H](c3ccc(Cl)cc3)N2C(=O)N2CCNC(=O)C2)c(OC(C)C)c1
GW9662 (2000 nM): O=C(Nc1ccccc1)c1cc([N+](=O)[O-])ccc1Cl
etoposide (20 nM): COc1cc([C@@H]2c3cc4c(cc3[C@@H](O[C@@H]3O[C@@H]5CO[C@@H](C)O[C@H]5[C@H](O)[C@H]3O)[C@H]3COC(=O)[C@H]23)OCO4)cc(OC)c1O
GSK0660 (1000 nM): COC(=O)c1sccc1S(=O)(=O)Nc1ccc(Nc2ccccc2)cc1OC
SNS-314 (0.8 nM): O=C(Nc1cccc(Cl)c1)Nc1ncc(CCNc2ncnc3ccsc23)s1

Pair,IST-MEL1,IPC-298,LOX IMVI,COLO 792,MEL-HO,A2058,LB2518-MEL,G-361
GW9662 and ENMD-2076,99.4,104,73.4,94.3,100,81.3,81.9,86.3
AZD7762 and ENMD-2076,115,96.7,97.1,98.0,106,94.9,112,88.6
GW9662 and SNS-314,97.2,93.5,96.3,92.1,87.7,103,89.1,102
embelin and ENMD-2076,106,103,62.8,102,103,94.3,120,76.3
SNS-314 and nutlin-3,100,101,97.8,107,98.3,99.6,103,83.0
GSK0660 and nutlin-3,104,98.8,150,98.0,96.2,102,83.1,91.1
midostaurin and embelin,96.3,104,84.3,82.9,102,83.4,109,98.0
etoposide and embelin,98.1,96.0,111,86.4,86.0,101,104,99.1
GW9662 and GSK0660,103,104,118,106,98.0,98.1,104,89.6
nutlin-3 and AZD7762,118,111,99.3,84.5,96.0,112,106,96.9
embelin and nutlin-3,109,101,117,88.9,119,101,-,106
AZD7762 and etoposide,105,103,158,102,99.1,113,109,113
ENMD-2076 and etoposide,108,100,71.1,109,114,90.8,94.5,83.8
etoposide and A-769662,96.6,91.9,99.9,104,99.3,91.3,79.3,114
etoposide and SNS-314,81.5,92.8,88.9,109,89.5,78.9,92.0,101
midostaurin and etoposide,93.5,92.4,53.4,86.0,82.9,79.4,92.0,91.0
midostaurin and GW9662,104,96.5,92.9,93.3,92.7,94.9,95.5,103
SNS-314 and A-769662,95.9,99.3,94.1,99.0,95.8,105,105,105
midostaurin and nutlin-3,97.5,99.7,130,82.1,94.9,102,92.1,84.5
GW9662 and embelin,115,103,67.5,85.4,87.0,105,95.5,100
AZD7762 and GSK0660,103,104,69.1,114,107,106,123,115
SNS-314 and ENMD-2076,91.7,109,88.6,96.3,96.3,79.8,99.3,101
A-769662 and midostaurin,100,95.4,100,83.6,89.5,81.5,109,88.2
AZD7762 and A-769662,102,103,128,95.1,102,107,-,115
GSK0660 and etoposide,108,95.7,138,94.7,84.5,98.1,-,99.6

2 of the entries, repeated:

| Pair | IST-MEL1 | IPC-298 | LOX IMVI | COLO 792 | MEL-HO | A2058 | LB2518-MEL | G-361 |
|---|---|---|---|---|---|---|---|---|
| GW9662 and ENMD-2076 | 99.4 | 104 | 73.4 | 94.3 | 100 | 81.3 | 81.9 | 86.3 |
| embelin and nutlin-3 | 109 | 101 | 117 | 88.9 | 119 | 101 | - | 106 |